The structures appear in SMILES notation. The list shows a part of the results. These are further read-outs of the screen, such as a control signal, another cell line or another target. No call is given for them. Compounds called inactive in the main read-out are mostly missing here. Square brackets hold non-standard residues; d marks the D form. Side chains are listed from the residue outwards. Peptide text beside a SMILES is read from it. * marks the point of attachment. X1 = CCC(C)C(N)C1=NC(C(=O)*)CS1; Orn = NCCC[CH](N)C(=O)O

A short description of this assay: enhancers of SMN2 over SMN1 splicing, cell-based, SMN2/SMN1 luciferase reporters (AID 1598). The settings on record: SMN2 vs SMN1 luciferase splicing reporter cells, at 10 µM; SMN1 luciferase ratio: measured here: SMN1 luciferase reporter average; SMN2 luciferase ratio: measured here: SMN2 luciferase reporter average, stronger effect = higher value. A general note: Reporter assays use an easily measured gene product as a stand-in for the process of interest.
Regarding `CC(=O)NCCc1c[nH]c2ccc(O)cc12`, the SMN1 luciferase ratio stood at 0.94 and the SMN2 luciferase ratio was found to be 0.86.

With `N[C@@H]1CONC1=O`, the SMN2 luciferase ratio worked out at 0.95 and the SMN1 luciferase ratio is 0.85.

In the case of `CN=C(N)NCCCC(N)C(=O)O` (stereo unspecified), the SMN1 luciferase ratio amounted to 0.87 and the SMN2 luciferase ratio was 1.01.

`C[C@@H]1O[C@@H](O[C@H]2[C@H](Oc3cc(O)c4c(c3)O[C@H](c3ccc(O)cc3)CC4=O)O[C@H](CO)[C@@H](O)[C@@H]2O)[C@H](O)[C@H](O)[C@H]1O`: the SMN2 luciferase ratio was 0.88 and the SMN1 luciferase ratio is 0.97.

As to `O=C1NCC2(CCN(CCc3ccccc3)CC2)O1`, the SMN2 luciferase ratio amounted to 0.84 and the SMN1 luciferase ratio came to 0.89.

As for `CCn1cc(C(=O)O)c(=O)c2cnc(N3CCNCC3)nc21`, the SMN2 luciferase ratio stood at 0.93 and the SMN1 luciferase ratio is 1.

`C#C[C@]1(O)CCC2C3CCC4=CC(=O)CC[C@@H]4C3CC[C@@]21CC` (stereo partly specified): the SMN1 luciferase ratio stood at 0.91 and the SMN2 luciferase ratio came out at 0.84.

With `Cc1cc(=O)n(-c2ccccc2)n1C`, the SMN1 luciferase ratio came to 0.92 and the SMN2 luciferase ratio turned out to be 0.84.

As to `Nc1ccc(S(=O)(=O)Nc2ccnn2-c2ccccc2)cc1`, the SMN1 luciferase ratio amounted to 0.95 and the SMN2 luciferase ratio was 1.12.

Regarding `CN(C)CCOC(C)(c1ccccc1)c1ccccn1` (stereo unspecified), the SMN2 luciferase ratio worked out at 0.9 and the SMN1 luciferase ratio was determined as 0.93.

As for `C1CCN2C[C@@H]3CC(CN4CCCC[C@@H]34)[C@H]2C1`, the SMN1 luciferase ratio is 0.86 and the SMN2 luciferase ratio is 0.87.

As for `CCCNC(C)C(=O)Nc1ccccc1C` (stereo unspecified), the SMN2 luciferase ratio stood at 0.91 and the SMN1 luciferase ratio was found to be 0.96.

Turning to `CCC(C)C(N)C1=NC(C(=O)NC(CC(C)C)C(=O)NC(CCC(=O)O)C(=O)NC(C(=O)NCCCCC2NC(=O)C(CC(N)=O)NC(=O)C(CC(=O)O)NC(=O)C(Cc3cnc[nH]3)NC(=O)C(Cc3ccccc3)NC(=O)C(C(C)CC)NC(=O)C(CCCN)NC2=O)C(C)CC)CS1` (stereo not drawn) (cyclo(DNK([Ile-Glu-Leu-X1])[Orn]IFH); configuration not given here), the SMN1 luciferase ratio was 0.84 and the SMN2 luciferase ratio came out at 0.83.

Values taken from PubChem BioAssay.
